In assay [1] the target is T1, REG3B in acinar cell lines (lines not named for this experiment) (UniProt P35230).
T1 sequence: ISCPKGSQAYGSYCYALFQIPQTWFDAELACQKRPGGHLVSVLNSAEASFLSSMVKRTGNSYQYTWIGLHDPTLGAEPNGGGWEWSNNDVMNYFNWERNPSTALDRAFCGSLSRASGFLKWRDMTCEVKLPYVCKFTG
The experiment in a line: co-IP; co-immunoprecipitation of candidate receptors with REG3B in acinar cell lines (Supplementary Fig. 3d); lines and precipitating antibody not told.

Protein sequences, listed by entry. Tags and fused reporters are not part of them. Residues count along the entry.
UniProt Q00560, residues 23-917: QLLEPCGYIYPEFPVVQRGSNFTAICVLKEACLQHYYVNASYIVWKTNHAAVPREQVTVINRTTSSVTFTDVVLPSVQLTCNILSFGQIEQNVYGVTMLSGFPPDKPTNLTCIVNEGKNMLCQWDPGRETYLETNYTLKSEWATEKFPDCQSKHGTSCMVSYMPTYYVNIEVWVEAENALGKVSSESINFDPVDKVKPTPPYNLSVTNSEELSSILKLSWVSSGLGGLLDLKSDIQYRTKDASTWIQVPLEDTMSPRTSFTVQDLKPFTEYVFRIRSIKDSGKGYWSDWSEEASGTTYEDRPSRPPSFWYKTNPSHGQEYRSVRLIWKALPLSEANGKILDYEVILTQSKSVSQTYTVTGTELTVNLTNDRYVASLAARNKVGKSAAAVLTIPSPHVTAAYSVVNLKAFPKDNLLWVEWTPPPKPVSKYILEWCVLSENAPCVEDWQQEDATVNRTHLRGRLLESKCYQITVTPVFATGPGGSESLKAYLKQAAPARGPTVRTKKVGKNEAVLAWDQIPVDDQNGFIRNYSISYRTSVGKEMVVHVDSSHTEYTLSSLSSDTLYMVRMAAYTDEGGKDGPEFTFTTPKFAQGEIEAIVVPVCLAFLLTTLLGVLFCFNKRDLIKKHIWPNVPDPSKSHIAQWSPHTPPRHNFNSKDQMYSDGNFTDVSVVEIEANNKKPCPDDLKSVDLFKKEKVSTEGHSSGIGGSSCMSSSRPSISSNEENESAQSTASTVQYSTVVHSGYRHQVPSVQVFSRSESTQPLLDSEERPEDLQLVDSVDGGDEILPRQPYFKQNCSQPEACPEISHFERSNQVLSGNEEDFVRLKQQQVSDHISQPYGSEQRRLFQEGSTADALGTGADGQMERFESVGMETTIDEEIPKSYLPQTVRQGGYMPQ

Assay [2] concerns the target T2, REG3B (mouse) (mouse (endogenous in mouse primary acinar cells and 266-6)) (UniProt P35230).
T2 sequence: T1 sequence
The experiment in a line: co-IP; total lysates (2 mg, pre-cleared) incubated overnight at 4 °C with anti-REG3B antibody (20 μg/mL), Protein-G agarose beads; eluates blotted for EXTL3; mouse primary acinar cells and AR42J.

Assay [3] has as its target T3, Exostosin-like glycosyltransferase 3 (EXTL3), mouse (mouse (endogenous in mouse primary acinar cells and 266-6)) (UniProt Q9WVL6).
T3 sequence: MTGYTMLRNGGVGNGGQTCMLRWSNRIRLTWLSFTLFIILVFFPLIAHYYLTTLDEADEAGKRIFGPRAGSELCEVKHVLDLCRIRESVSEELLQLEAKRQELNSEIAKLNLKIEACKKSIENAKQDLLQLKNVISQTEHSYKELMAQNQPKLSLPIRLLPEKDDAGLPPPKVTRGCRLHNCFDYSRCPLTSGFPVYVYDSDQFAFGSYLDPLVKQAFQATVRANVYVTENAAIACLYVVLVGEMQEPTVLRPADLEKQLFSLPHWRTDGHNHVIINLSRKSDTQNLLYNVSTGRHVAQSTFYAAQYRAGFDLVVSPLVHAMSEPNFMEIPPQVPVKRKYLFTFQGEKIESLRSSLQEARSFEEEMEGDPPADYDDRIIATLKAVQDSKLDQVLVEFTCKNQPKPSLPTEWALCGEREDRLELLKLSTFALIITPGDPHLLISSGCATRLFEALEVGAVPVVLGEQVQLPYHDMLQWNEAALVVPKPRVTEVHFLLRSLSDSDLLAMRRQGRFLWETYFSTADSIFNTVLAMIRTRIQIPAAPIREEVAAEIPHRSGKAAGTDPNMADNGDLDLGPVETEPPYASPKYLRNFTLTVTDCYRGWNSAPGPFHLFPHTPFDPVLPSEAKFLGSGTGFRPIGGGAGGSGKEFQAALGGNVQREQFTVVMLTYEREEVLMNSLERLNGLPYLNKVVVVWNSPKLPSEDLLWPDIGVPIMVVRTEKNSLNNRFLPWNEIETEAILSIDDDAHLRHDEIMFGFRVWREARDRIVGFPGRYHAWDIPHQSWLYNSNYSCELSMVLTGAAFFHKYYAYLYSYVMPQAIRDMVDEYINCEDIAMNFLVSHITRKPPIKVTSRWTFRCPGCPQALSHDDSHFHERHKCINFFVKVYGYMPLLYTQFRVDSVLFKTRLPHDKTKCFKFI
In words: co-IP; total lysates (2 mg, pre-cleared) incubated overnight at 4 °C with anti-EXTL3 antibody (20 μg/mL), Protein-G agarose beads; eluates blotted for REG3B; 266-6 and mouse primary acinar cells.

No constants are given. Whether binding was seen depends on the method and setting. In cells and extracts the contact can be indirect. Some binding calls cover weakened binding; strength is not graded here. For some of these results: Sequences can lack the tags named with a protein.

With “EGFR (from UniProt Q01279 25-1210) (receptor)”, the binding result in assay [1] is on record as “no binding”.

Take “GP130 (from UniProt Q00560 23-917) (receptor)”: the binding result in assay [1] is “no binding”.

B1: Exostosin-like glycosyltransferase 3 (EXTL3), mouse (receptor, UniProt Q9WVL6 1-918)
chain: T3 sequence
For the molecule B1, in assay [2], the binding result is “binds”.

B2: REG3B (mouse) (protein, UniProt P35230 38-175)
chain: T1 sequence
In the case of B2, the binding entry in assay [3] is given as “binds”.

(Values after paper PMC8184755.)
